{"source": "PubChem BioAssay AID434945", "about": "(Broad Institute, 2010)", "note": "The list shows a part of the results. Potency and affinity values are given separately. The source made no clear call on entries shown without one.", "data": [{"assay": "Calcineurin inhibition, yeast CDRE-lacZ reporter, luminescent dose-response secondary (AID 434945)", "conditions": "S. cerevisiae CDRE-lacZ reporter, CaCl2, luminescence; at 28.5 µM (top of the series)", "units": {"activity change, negative = inhibition": "%"}, "values": [{"smiles": "Clc1ccc2c(c1)C(c1cccs1)=NNC(c1cccnc1)=N2", "activity change, negative = inhibition": 45.8}, {"smiles": "c1ccc2c(c1)OCC(CNc1ncnc3sccc13)O2", "note": "(centres undefined)", "activity change, negative = inhibition": 29.5}, {"smiles": "Cc1ccc(C(=O)Nc2cccc(-c3cn4ccccc4n3)c2)cc1", "activity change, negative = inhibition": 62.3}, {"smiles": "O=C(Nc1nnc(-c2ccco2)o1)c1ccc(Cl)cc1", "activity change, negative = inhibition": 79.4}, {"smiles": "CCOC(=O)c1c(-c2ccccc2Cl)cn2ccccc12", "activity change, negative = inhibition": 42.3}, {"smiles": "COc1cc2c(cc1NC(=O)c1ccco1)CCCC2", "activity change, negative = inhibition": 35.6}, {"smiles": "CC(C)N1CCc2c(sc(NC(=O)c3nc4ccccc4s3)c2C(N)=O)C1", "activity change, negative = inhibition": 43.2}, {"smiles": "O=C(Nc1nnc(CCc2ccccc2)s1)c1ccco1", "activity change, negative = inhibition": 52.2}, {"smiles": "CCCC(=O)NC(c1ccccc1)c1ccc2cccnc2c1O", "note": "(centres undefined)", "activity change, negative = inhibition": 119}]}]}
